Laboratory results: PubChem BioAssay AID1159578 (Peter MacCallum Cancer Centre, 2015)
Test: 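siRNA pools altering how lymphatic endothelial cells close a scratch wound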 (primary screen). System: human lymphatic endothelial cells. Knock-down reagent: siRNA pool against human genes, 40 nM. Time to read-out: 48 h after transfection. Read-out: 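Cells stained with dye and imaged after a scratch; covered wound area and nuclei counted, duplicates averaged, migration set against mock wells and turned into a robust z-score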. Reading the numbers: migration robust z-score: higher = faster migration into the scratch; migration relative to mock: higher = more scratch area covered than mock; nuclei per well: higher = more cells in the well. Hit rule: 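Pools averaging fewer than 3300 nuclei are never called; remaining pools count as changed when migration robust z lies outside -2 to 2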. Calls: active = migration changed; inactive = no migration change, or too few cells.
Here is an unselected part of about 18,000 reagents. Over the whole deposit, about 1,030 (5.7%) were called active. 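Inactive calls also include pools with fewer than 3300 nuclei, whose migration was not assessed.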 Raw values are not corrected between plates.

Target gene	migration robust z-score	migration class with cell-count check	migration relative to mock	nuclei per well, duplicate mean	activity call
PCDH20	0.4	migration z between -2 and 2; enough cells	0.98	6284	inactive
CDR2L	-0.24	migration z between -2 and 2; enough cells	0.82	6600	inactive
DUSP1	0.65	migration z between -2 and 2; enough cells	0.93	4848	inactive
FNDC3A	0.14	migration z between -2 and 2; enough cells	0.92	6568	inactive
PLAGL2	-0.52	migration z between -2 and 2; enough cells	0.71	5810	inactive
TYK2	-0.36	migration z between -2 and 2; enough cells	0.74	5510	inactive
GPX8	0.51	migration z between -2 and 2; enough cells	1.02	5799	inactive
SKOR2	-1.04	migration z between -2 and 2; enough cells	0.62	4551	inactive
PITPNM2	0.28	migration z between -2 and 2; enough cells	0.86	4771	inactive
TDRD3	0.29	migration z between -2 and 2; enough cells	0.96	5898	inactive
SHISA6	0.27	migration z between -2 and 2; enough cells	0.96	4870	inactive
MN1	-1.64	migration z between -2 and 2; enough cells	0.46	7145	inactive
FAM222A	-2.32	migration z below -2; enough cells	0.28	3684	active
PLEC	-0.84	migration z between -2 and 2; enough cells	0.66	5420	inactive
CHAC2	1.08	migration z between -2 and 2; enough cells	1.17	6240	inactive
PYHIN1	0.12	migration z between -2 and 2; enough cells	0.92	5916	inactive
EIF4H	-0.2	migration z between -2 and 2; enough cells	0.76	4651	inactive
GALNT3	-0.03	migration z between -2 and 2; enough cells	0.8	5788	inactive
SLC13A1	1.25	migration z between -2 and 2; enough cells	1.04	4804	inactive
CARINH	1.16	migration z between -2 and 2; enough cells	1.18	7436	inactive
TRIM2	0.83	migration z between -2 and 2; enough cells	0.96	6830	inactive
INF2	-3.07	under 3300 nuclei; migration not judged	0.07	2913	inactive
OR51E2	-0.25	migration z between -2 and 2; enough cells	0.82	5770	inactive
TM4SF5	0	migration z between -2 and 2; enough cells	0.89	6936	inactive

7 successive records already listed, quoted:
Target gene	migration robust z-score	migration class with cell-count check	migration relative to mock	nuclei per well, duplicate mean	activity call
EIF4H	-0.2	migration z between -2 and 2; enough cells	0.76	4651	inactive
GALNT3	-0.03	migration z between -2 and 2; enough cells	0.8	5788	inactive
SLC13A1	1.25	migration z between -2 and 2; enough cells	1.04	4804	inactive
CARINH	1.16	migration z between -2 and 2; enough cells	1.18	7436	inactive
TRIM2	0.83	migration z between -2 and 2; enough cells	0.96	6830	inactive
INF2	-3.07	under 3300 nuclei; migration not judged	0.07	2913	inactive
OR51E2	-0.25	migration z between -2 and 2; enough cells	0.82	5770	inactive

Further entries follow:
Target gene	migration robust z-score	migration class with cell-count check	migration relative to mock	nuclei per well, duplicate mean	activity call
LY6G6F	0.16	migration z between -2 and 2; enough cells	0.94	5444	inactive
PTPDC1	-0.52	migration z between -2 and 2; enough cells	0.7	5754	inactive
DYNLT4	1.95	migration z between -2 and 2; enough cells	1.39	7662	inactive
CUEDC2	-2.8	migration z below -2; enough cells	0.16	4876	active
ZNHIT3	-0.62	migration z between -2 and 2; enough cells	0.72	6872	inactive
SLC38A1	-1.66	migration z between -2 and 2; enough cells	0.48	4365	inactive
DSCR4	-0.28	migration z between -2 and 2; enough cells	0.82	5556	inactive
FUZ	1.7	migration z between -2 and 2; enough cells	1.33	5568	inactive
ITPRIP	1.5	migration z between -2 and 2; enough cells	1.27	6071	inactive
MYOM1	-2.29	migration z below -2; enough cells	0.29	5890	active
PAX1	-1.02	migration z between -2 and 2; enough cells	0.61	5088	inactive
EXOC3L1	0.75	migration z between -2 and 2; enough cells	1.07	4912	inactive
CDPF1	0.71	migration z between -2 and 2; enough cells	1.07	4972	inactive
RSPH6A	1.94	migration z between -2 and 2; enough cells	1.38	6953	inactive
PLEKHM1P1	1.19	migration z between -2 and 2; enough cells	1.04	5299	inactive
ADAMTSL4	0.52	migration z between -2 and 2; enough cells	1.02	6706	inactive
EIF5A	1.22	migration z between -2 and 2; enough cells	1.04	6758	inactive
MRPL1	-0.43	migration z between -2 and 2; enough cells	0.78	5700	inactive
PCDHGB4	0.54	migration z between -2 and 2; enough cells	1.02	7002	inactive
ENPP4	0.86	migration z between -2 and 2; enough cells	0.97	5322	inactive
GPR84	-3.17	migration z below -2; enough cells	0.2	5370	active
ARL6IP6	2.99	migration z above 2; enough cells	1.66	6074	active
ZMYND12	-0.76	migration z between -2 and 2; enough cells	0.68	4606	inactive
MIOX	-0.26	migration z between -2 and 2; enough cells	0.76	5250	inactive
KCTD8	1.68	migration z between -2 and 2; enough cells	1.32	5838	inactive
CTDSPL	0.58	migration z between -2 and 2; enough cells	1.04	6272	inactive
RAB27B	-0.21	migration z between -2 and 2; enough cells	0.76	5165	inactive
CIMIP6	-0.09	migration z between -2 and 2; enough cells	0.86	7060	inactive
FBF1	0.13	migration z between -2 and 2; enough cells	0.92	6523	inactive
PCDHGA12	-0.14	migration z between -2 and 2; enough cells	0.85	5936	inactive
KCNG1	2.34	migration z above 2; enough cells	1.25	5392	active
EIF2B1	-0.49	migration z between -2 and 2; enough cells	0.71	6008	inactive
FAM3D	-1.36	migration z between -2 and 2; enough cells	0.53	6020	inactive
